PMC11640418
Results are given in words; binding and its absence hold for the method and conditions named. Binding seen in cells or lysates may run through a third protein. Some entries that bind do so weakly or less than the wild type.

The chains behind the UniProt entries cited, without tags or fusion partners. Where a name states a change or a piece, a line headed by the entry shows the natural chain unless it says otherwise.
UniProt Q0ZGT2: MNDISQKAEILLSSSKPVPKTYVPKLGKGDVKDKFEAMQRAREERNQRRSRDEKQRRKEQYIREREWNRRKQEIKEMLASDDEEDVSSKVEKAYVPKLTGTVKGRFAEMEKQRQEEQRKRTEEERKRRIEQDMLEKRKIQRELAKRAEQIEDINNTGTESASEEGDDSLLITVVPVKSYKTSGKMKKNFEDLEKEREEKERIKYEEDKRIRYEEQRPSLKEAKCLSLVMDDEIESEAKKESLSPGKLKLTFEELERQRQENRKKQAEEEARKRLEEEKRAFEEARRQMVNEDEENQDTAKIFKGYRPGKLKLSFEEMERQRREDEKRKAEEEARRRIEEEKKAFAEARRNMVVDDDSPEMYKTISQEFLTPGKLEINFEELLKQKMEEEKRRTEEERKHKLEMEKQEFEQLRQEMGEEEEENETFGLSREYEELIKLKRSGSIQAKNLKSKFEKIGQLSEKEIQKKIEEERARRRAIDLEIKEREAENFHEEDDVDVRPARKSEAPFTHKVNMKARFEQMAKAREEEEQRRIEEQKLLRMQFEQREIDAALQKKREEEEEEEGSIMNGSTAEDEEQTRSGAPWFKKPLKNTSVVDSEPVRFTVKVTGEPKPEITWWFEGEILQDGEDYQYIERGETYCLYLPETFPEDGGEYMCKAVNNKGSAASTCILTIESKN

Assays:
[1] = biological target: His-tagged full-length human nexilin (human) (UniProt Q0ZGT2); assay: pull-down; His-nexilin bound to Ni-NTA; lysates of HEK-293 cells overexpressing Flag-tagged nexilin variants; Flag and actin blots; only the target purified
[2] = biological target: His-tagged full-length human nexilin (human) (UniProt Q0ZGT2); assay: pull-down; His-nexilin bound to Ni-NTA resin; GST-nexilin variants as bacterial lysate, 2 h, 4 °C, PD buffer (50 mM NaCl, 10 mM Tris/HCl pH 7.5, 0.1% Triton X-100) with 20 mM imidazole; GST blot; only the target purified

Flag-tagged full-length human nexilin (from UniProt Q0ZGT2-1 1-675)
binding [1]: binds

GST-tagged full-length human nexilin (from UniProt Q0ZGT2-1 1-675)
binding [2]: binds
